Values quoted from earlier work as cited in US20130053387A1, “DESAZADESFERROTHIOCIN AND DESAZADESFERROTHIOCIN POLYETHER ANALOGUES AS METAL CHELATION AGENTS” (FerroKin BioScience, Inc., priority 2010, published 2013).

Key:
[1] = cited from earlier work; for Primate ICE [urine/bile]: mode of iron excretion; for ICE Ratio: ICE in primate to ICE in rodent
[2] = rats, 300 μmol/kg intraperitoneally immediately after uranyl acetate; mode of excretion; cited from earlier work

| Structure (SMILES) | Primate ICE [urine/bile] ([1]; capsule) | Primate ICE [urine/bile] ([1]; sodium salt) | ICE Ratio [1] | Uranium Excretion [urine/bile] [2] |
| --- | --- | --- | --- | --- |
| COCCOCCOc1ccc(C2=N[C@@](C)(C(=O)O)CS2)c(O)c1 [Example A, (S)-2-(2-hydroxy-4-(2-(2-methoxyethoxy)ethoxy)phenyl)-4-methyl-4,5-dihydrothiazole-4-carboxylic acid] | [93/7] | [83/17] |  |  |
| COCCOCCOCCOc1ccc(C2=N[C@@](C)(C(=O)O)CS2)c(O)c1 [Example B, (S)-2-(2-hydroxy-4-(2-(2-(2-methoxyethoxy)ethoxy)ethoxy)phenyl)-4-methyl-4,5-dihydrothiazole-4-carboxylic acid] |  |  | 4.6 | [35/65] |
| COCCOCCOCCOCCOc1ccc(C2=N[C@@](C)(C(=O)O)CS2)c(O)c1 [Example C, (S)-2-(4-(2,5,8,11-tetraoxamidecan-13-yloxy)-2-hydroxyphenyl)-4-methyl-4,5-dihydrothiazole-4-carboxylic acid] |  |  | 0.8 |  |
| COCCOCCOCCOc1cccc(C2=N[C@@](C)(C(=O)O)CS2)c1O [Example E, (S)-2-(2-hydroxy-3-(2-(2-(2-methoxyethoxy)ethoxy)ethoxy)phenyl)-4-methyl-4,5-dihydrothiazole-4-carboxylic acid] |  |  | 2.2 |  |
| COCCOCCOCCOCCOc1cccc(C2=N[C@@](C)(C(=O)O)CS2)c1O [Example F, (S)-2-(3-(2,5,8,11-tetraoxamidecan-13-yloxy)-2-hydroxyphenyl)-4-methyl-4,5-dihydrothiazole-4-carboxylic acid] |  |  | 0.8 |  |

Read-outs that look alike come from different tables or passages of the source.
